Results: patent publication US20250034575A1, “OLIGONUCLEOTIDES FOR DGAT2, FASN, OPN, AND NOX4 MODULATIONS” (UNIVERSITY OF MASSACHUSETTS, priority 2023, published 2025)
The name of at least one read-out is uncertain.

Test system: FASN
Test: Cholesterol conjugated Fasn-2314 in Tgfb activated Lx2 cells, Western blotting
Format: cell-based, human
Conditions: 1.5 uM, Tgfb 5 ng/ml 24 hrs post treatment, harvested 48 hrs post activation
Experimental: In the analysis of protein expression, cell lysates were homogenized in a RIPA buffer (25 mM Tris, pH 7.4 0.15 M NaCl 0.1% Tween 20) with 1:100 protease inhibitor (78442, Thermo Scientific). The lysates were denatured by boiling, separated on a 4 to 15% SDS/polyacrylamide gel electrophoresis gel (567-1094, Bio-Rad), and transferred to a nitrocellulose membrane (1704159, Bio-Rad). The membrane was blocked using TBS-T with 5% BSA for 1 hour at room temperature and incubated using p-SMAD3 (ab52903, Abcam), type I collagen (1310-30, Southern Biotech), and GAPDH (5174, Cell Signaling). The blot was further washed in TBS-T and incubated at room temperature with its corresponding secondary antibody for 30 minutes. Following another wash, the blot was incubated with ECL (32106, Thermo Scientific) and visualized with the ChemiDox XRS+ image-forming system.
Moreover, the protein level of Smad3 was also measured for untreated control, cholesterol conjugated non-targeting control, and cholesterol conjugated Fasn-2314. 1×10^6 of human Lx2 cells were plated in 10 cm2 plates and treated with 1.5 uM cholesterol conjugated Fasn-2314. 24 hrs post treatment Lx2 cells were activated with Tgfb (5 ng/ml) to induce fibrotic phenotype. 48 hrs post activation cells were harvested and processed for Western blotting analysis.

In the case of “FASN 2314: siRNA targeting human FASN; antisense SEQ ID NO: 56, TegChol sense SEQ ID NO: 57 (sense CCGAGUACAAUGUCAA; antisense UUGACAUUGUACUCGGCGGUU; sugars by position and backbone not given here; 2'-F/2'-OMe modifications not assigned, TegChol cholesterol on sense, further chemistry not fully specified)”, the “FASN protein KD” value is reported as “strong protein KD”.
